The name of at least one read-out is uncertain. Some compounds share one wording; it may come from a single statement. At least one compound was matched to its structure with a doubt left.
Test: Visual assessment of sweetener solubilization and solution stability (transparency) at room temperature
Assay type: physicochemical
Conditions: same amount as in the example: 7% wt. Reb A (99.5%), 25% wt. Reb B (95%), 10% wt. Reb M (95%)

Row | Compound | Solubilization of active and aspect in pure ethyl lactate | Solubilization of active and aspect in pure glycerol
1 | Rebaudioside B [Reb B (95%)] | non-complete solubilization of active and some cloudy and unstable suspensions | non-complete solubilization of active and some cloudy and unstable suspensions
2 | C=C1C[C@@]23CC[C@H]4[C@@](C)(CCC[C@@]4(C)C(=O)O[C@@H]4O[C@H](CO)[C@@H](O)[C@H](O)[C@H]4O)[C@@H]2CC[C@]1(O[C@@H]1O[C@H](CO)[C@@H](O)[C@H](O[C@@H]2O[C@H](CO)[C@@H](O)[C@H](O)[C@H]2O)[C@H]1O[C@@H]1O[C@H](CO)[C@@H](O)[C@H](O)[C@H]1O)C3 [Reb A (99.5%), Rebaudioside A] | non-complete solubilization of active and some cloudy and unstable suspensions | non-complete solubilization of active and some cloudy and unstable suspensions
3 | C=C1C[C@@]23CC[C@H]4[C@@](C)(CCC[C@@]4(C)C(=O)O[C@@H]4O[C@H](CO)[C@@H](O)[C@H](O[C@@H]5O[C@H](CO)[C@@H](O)[C@H](O)[C@H]5O)[C@H]4O[C@@H]4O[C@H](CO)[C@@H](O)[C@H](O)[C@H]4O)[C@@H]2CC[C@]1(O[C@@H]1O[C@H](CO)[C@@H](O)[C@H](O[C@@H]2O[C@H](CO)[C@@H](O)[C@H](O)[C@H]2O)[C@H]1O[C@@H]1O[C@H](CO)[C@@H](O)[C@H](O)[C@H]1O)C3 [Reb M (95%), Rebaudioside M] | non-complete solubilization of active and some cloudy and unstable suspensions | non-complete solubilization of active and some cloudy and unstable suspensions

— patent US20260206809A1, “NATURAL SWEETENER COMPOSITIONS CONTAINING ALKYL LACTATES AND USES THEREOF” (Firmenich SA, priority 2022, published 2026)
